Measurements from PubChem BioAssay AID1347075 (National Center for Advancing Translational Sciences (NCATS), 2019).
The whole screen tested about 400,000 compounds, of which about 5,500 (1.4%) were called active. Inconclusive means that the source gave no clear call. Such entries were picked first, then a sample of the others. Calls follow the shape of the dose curve; as a rule, active = well fitted cell-killing curve with a large enough effect; inconclusive = small, poorly fitted or top-dose-only effect, or effect the other way; inactive = flat fitted curve, though single readings scatter. A potency beside an inconclusive call is a rough fit, not a confirmed value.

Experiment: qHTS assay for MDR1-selective chemotherapeutics: Primary screen using the parental adenocarcinoma cell KB-3-1; also: nearly all actives have a fitted effect of over 60% in size
Conditions: KB-3-1 viability, CellTiter-Glo ATP luminescence, 72 h; activity change, negative = cytotoxic: at 46.1 µM (top of the series)
Method in brief: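 Screening of KB-3-1 cells (DMEM, 10% FBS, phenol-red free) ran from lowest to highest compound concentration; after 72 h at 37 °C viability was read luminescently and curves fitted.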
% is scaled to controls: 0 for no effect and ±100 for the full control effect; potency is read from the fitted curve at half-maximal effect.

Row | SMILES | activity change, negative = cytotoxic | Potency
1 | N#CCCN(Cc1ccccc1)C(C(=O)NC1CCCCC1)c1cc2ccccc2o1 (centres undefined) | inconclusive: -30.8% | 
2 | Cn1cnc([N+](=O)[O-])c1S(=O)(=O)Nc1ccccc1 |  | inconclusive: 29.1 µM [cytotoxic, single point]
3 | CCOC(=O)c1[nH]c(C)c(CC(C)C)c1C | inactive: -3% | 
4 | CC(C)C1C(=O)N(Cc2cn(CCC3OCCO3)nn2)CCS(=O)(=O)N1Cc1ccc(-c2ccc(Cl)cc2)cc1 (centres undefined) |  | inconclusive: 25.9 µM [cytotoxic, single point]
5 | O=C(CNC(=O)c1cccc(-n2cnnn2)c1)Nc1ccc(F)c(F)c1 | inactive: 1.14% | 
6 | COc1cc(-c2ccc3ncnc(N(C)Cc4csc(C)n4)c3c2)cc(OC)c1OC |  | inconclusive: 18.4 µM [cytotoxic, single point]
7 | CN(C)CCCN(C(=O)/C=C/c1cccs1)c1nc2c(F)cccc2s1 |  | inconclusive: 29.1 µM [cytotoxic, single point]
8 | CCCCN(C(=O)c1ccc(-c2ccc(Cl)cc2)o1)c1c(N)n(CC(C)C)c(=O)[nH]c1=O |  | inconclusive: 29.1 µM [cytotoxic, single point]
9 | CCOc1cc(CNc2ccc(O)cc2)cc(Br)c1OCc1ccccc1 |  | inconclusive: 20.6 µM [cytotoxic, partial curve]
10 | COCCNC(=O)/C(C#N)=C/c1ccc2c(c1)OCO2 |  | inconclusive: 4.11 µM [rising, full curve, poor fit]
11 | CCOC(=O)c1cnn(-c2ccccc2)c1-n1cccc1C(=O)C(=O)Nc1ccccc1C(F)(F)F |  | inconclusive: 16.4 µM [cytotoxic, single point]
12 | O=C(NC1=C(Nc2ccc(Cl)cc2)C(=O)c2ccccc2C1=O)c1ccccc1 |  | active: 18.4 µM
13 | Cc1ccc(N(Cc2ccccc2)C(=O)c2ccc(C)c(S(=O)(=O)N3CCOCC3)c2)cc1 |  | inconclusive: 18.4 µM [cytotoxic, single point]
14 | Cc1sc(NC(=O)Cn2c(=O)oc3ccccc32)nc1-c1ccc(Cl)cc1 |  | inconclusive: 29.1 µM [cytotoxic, single point]
15 | CCOc1ccc(C(=O)NC(C(=O)NCCc2ccc(OC(F)F)cc2)C(C)C)cc1 (centres undefined) | inactive: -3.72% | 
16 | Cc1ccc(C)c(NC(=O)c2cc([N+](=O)[O-])cc([N+](=O)[O-])c2)c1 | inactive: -7.23% | 
17 | NC(=O)CSc1nc2c(c(=O)n1-c1ccccc1)C1(CCCCC1)Cc1ccccc1-2 |  | inconclusive: 20.6 µM [cytotoxic, single point]
18 | CCOC(=O)N/N=C/c1ccc(N(CC)CC)cc1O |  | active: 20.6 µM
19 | Cc1ccc(C)c(OCc2ccc(C(=O)Nc3ccc([N+](=O)[O-])cn3)o2)c1 |  | inconclusive: 14.6 µM [cytotoxic, partial curve]
20 | CC12CCC(C(=O)N(CC(O)CN3CCN(Cc4ccccc4)CC3)C1=O)C2(C)C (centres undefined) |  | inconclusive: 0.58 µM [rising, full curve, poor fit]
21 | COc1ccc(-n2c(SCC(=O)N3CCC(C)CC3)nc3c([nH]c4ccccc43)c2=O)cc1 |  | inconclusive: 16.4 µM [rising, partial curve, poor fit]
22 | CCOc1cccc(C2c3c(oc4ccccc4c3=O)C(=O)N2c2nc(C)c(C(=O)OC)s2)c1 (centres undefined) |  | inconclusive: 18.4 µM [rising, partial curve]
23 | Cc1nn(Cc2ccccc2Cl)c(C)c1NC(=O)c1noc2c1CCCCC2 |  | inconclusive: 14.6 µM [cytotoxic, partial curve]

Row | SMILES | activity change, negative = cytotoxic | Potency
24 | N#Cc1ccc(CN2CCN(C(=O)CNC(=O)Cc3cccc4ccccc34)CC2)cc1 |  | inconclusive: 16.4 µM [cytotoxic, partial curve]
25 | COc1ccc(-c2csc(NC(=O)c3ccccc3F)c2C(=O)O)cc1 |  | inconclusive: 18.4 µM [cytotoxic, single point]
26 | Nc1ccccc1Nc1cc(-c2cccc(Cl)c2)nn1-c1ccccc1 |  | inconclusive: 29.1 µM [cytotoxic, single point]
27 | c1ccc(-n2nnc3cnccc32)cc1 |  | inconclusive: 3.98 µM [cytotoxic, partial curve, poor fit]
28 | CC(=O)Nc1ccc(CN2CCN(CCc3ccccc3)C(CCO)C2)cc1 (centres undefined) | inactive: 4.57% | 
29 | Clc1ccc(CNc2cnccn2)cc1 |  | inconclusive: 2.91 µM [cytotoxic, partial curve, poor fit]
30 | Cc1ccc(NC(=O)c2nnn(-c3cc(C)cc(C)c3)c2N)cc1 |  | inconclusive: 29.1 µM [cytotoxic, single point]
31 | Cn1c(N)c(C(=O)COC(=O)c2ccc([N+](=O)[O-])o2)c(=O)n(C)c1=O |  | inconclusive: 20.6 µM [cytotoxic, single point]
32 | Cc1ccc(-c2cc3ncc(C(=O)c4cc([N+](=O)[O-])ccc4O)cn3n2)cc1 |  | active: 16.4 µM
33 | Cc1ccc(NC(=O)Nc2cccnc2)cc1NC(=O)Nc1cccnc1 |  | inconclusive: 29.1 µM [cytotoxic, single point]
34 | COc1cccc(/C=C/C(=O)N(C)CC(=O)Nc2ccc(Cl)c(C(F)(F)F)c2)c1 |  | inconclusive: 29.1 µM [cytotoxic, single point]
35 | Cc1nn(-c2ccccn2)c2c1-c1nc(N)sc1CC2 |  | inconclusive: 20.6 µM [cytotoxic, single point]
36 | CNc1nc(N)nc(-c2cc(Cl)ccc2OC)n1 |  | inconclusive: 16.4 µM [rising, partial curve, poor fit]
37 | CCOCC(=O)Nc1nnc(COC)s1 | inactive: 2.15% | 
38 | Cc1c(OCC(=O)NC2CC(C)(C)NC(C)(C)C2)ccc2c1oc(=O)c1ccccc12 | inactive: -1.96% | 
39 | Cc1ccc(-c2c[n+](Cc3cccc(Cl)c3)c3n2CCC3)cc1 |  | active: 8.2 µM
40 | O=C1NC(=Nc2ccccc2)S/C1=C\c1ccccc1 |  | inconclusive: 16.4 µM [cytotoxic, partial curve, poor fit]
41 | Cc1csc(NC(=O)c2oc3ccccc3c2C)n1 |  | inconclusive: 20.6 µM [rising, single point]
42 | COc1ccc(CNC(=O)CCCCCNc2nc(=S)[nH]c3ccccc23)cc1 |  | inconclusive: 20.6 µM [rising, single point]
43 | COc1ccc(CCNC(=O)NCc2noc3ccccc23)c(OC)c1 | inactive: 4.82% | 
44 | CCCCCc1ccc(OCCC[n+]2ccccc2)c(CCCCC)c1 |  | active: 11.6 µM
45 | O=S(=O)(c1ccc(F)cc1F)N1CCCN(c2ccc(C(F)(F)F)cn2)CC1 |  | inconclusive: 29.1 µM [rising, single point]
46 | C[n+]1cccc(C2C(C#N)=C(N)Oc3c2ccc2ccccc32)c1 (centres undefined) |  | inconclusive: 20.6 µM [cytotoxic, single point]

Row | SMILES | activity change, negative = cytotoxic | Potency
47 | COc1cc(NC(=O)c2noc3c2CCc2ccccc2-3)cc(OC)c1OC | inactive: 4.9% | 
48 | Cc1ccc(-n2cccn2)c(CN2CCCC(C(=O)c3sccc3C)C2)c1 (centres undefined) |  | inconclusive: 23.1 µM [cytotoxic, single point]
49 | c1ccc(-n2cnc3cc(NCc4ccco4)ccc32)cc1 |  | active: 23.1 µM
50 | O=C(Nc1nc2ccc(F)cc2s1)C1CCN(S(=O)(=O)c2cc([N+](=O)[O-])ccc2Cl)CC1 |  | active: 14.6 µM
51 | COc1ccc(C(=O)N2CCc3ccccc32)cc1S(=O)(=O)N1CCOCC1 |  | inconclusive: 23.1 µM [cytotoxic, single point]
52 | C#C[C@]1(O)CC[C@H]2[C@@H]3CCc4cc(OC)ccc4[C@H]3CC[C@@]21C | inactive: 0% | 
53 | COc1ccc(CNc2nc3c(c(=O)n(Cc4ccc(Cl)cc4)c(=O)n3C)n2C)cc1 |  | inconclusive: 25.9 µM [cytotoxic, single point]
54 | O=C(COC(=O)/C=C/c1cccc(C(F)(F)F)c1)NC(c1ccccc1)c1ccccc1 |  | inconclusive: 32.6 µM [rising, single point]
55 | CC(=O)N1CC(=O)N(Cc2ccccc2)/C(=C/c2ccccc2)C1=O |  | inconclusive: 0.164 µM [rising, full curve]
56 | Cc1n[nH]c(C)c1CCc1nc2c3ccccc3nc(SCC(=O)Nc3ccccc3F)n2n1 | inactive: -21.6% | 
57 | Cc1ccc(-c2cc(C(=O)N/N=C/c3c[nH]c4ccccc34)n[nH]2)o1 | inactive: 0.57% | 
58 | Cc1cc(N2CCC(C)CC2)nc(NCc2ccccc2)n1 |  | active: 13 µM
59 | CCc1ccc2c(c1)C(O)(CC(=O)c1cccs1)C(=O)N2 (centres undefined) | inactive: -1.53% | 
60 | CC(=O)c1ccc(S(=O)(=O)N2CCN(C(=O)/C=C/c3ccc4ccccc4n3)CC2)cc1 |  | inconclusive: 23.1 µM [cytotoxic, single point]
61 | COc1ccc(Cl)c(Cn2c(NCCN)nc3c2c(=O)n(C)c(=O)n3C)c1 | inactive: -2.59% | 
62 | C#CCOCC1CN(c2ccccc2)C(=O)O1 (centres undefined) |  | inconclusive: 32.6 µM [cytotoxic, single point]
63 | Cc1ccnc(NC(c2ccccc2F)c2ccc3cccnc3c2O)c1 (centres undefined) |  | inconclusive: 29.1 µM [cytotoxic, single point]
64 | NC(=S)n1[nH]c(-c2ccc([N+](=O)[O-])cc2)c(N=Nc2cccc(Cl)c2)c1=O |  | active: 20.6 µM
65 | COC(=O)c1cc(C)sc1NC(=O)c1cccnc1 | inactive: -23.7% | 
66 | COc1ccc(C(=O)CCc2ccc(OC)c(OC)c2)cc1 |  | inconclusive: 6.51 µM [cytotoxic, full curve, poor fit]
67 | O=C(/C=C/c1cccc(C(F)(F)F)c1)N1CCN(c2ccccn2)CC1 |  | inconclusive: 25.9 µM [cytotoxic, single point]
68 | COc1ccc(/C=C(/NC(=O)c2ccccc2)C(=O)NCc2ccco2)cc1 |  | inconclusive: 0.206 µM [rising, full curve]
69 | COCC(=O)N/N=C\c1cccc(OC)c1OC/C=C/c1ccccc1 |  | inconclusive: 29.1 µM [cytotoxic, single point]

Exported with tabs: entries from further up.
Row	SMILES	activity change, negative = cytotoxic	Potency
53	COc1ccc(CNc2nc3c(c(=O)n(Cc4ccc(Cl)cc4)c(=O)n3C)n2C)cc1		inconclusive: 25.9 µM [cytotoxic, single point]
54	O=C(COC(=O)/C=C/c1cccc(C(F)(F)F)c1)NC(c1ccccc1)c1ccccc1		inconclusive: 32.6 µM [rising, single point]
55	CC(=O)N1CC(=O)N(Cc2ccccc2)/C(=C/c2ccccc2)C1=O		inconclusive: 0.164 µM [rising, full curve]
56	Cc1n[nH]c(C)c1CCc1nc2c3ccccc3nc(SCC(=O)Nc3ccccc3F)n2n1	inactive: -21.6%	
57	Cc1ccc(-c2cc(C(=O)N/N=C/c3c[nH]c4ccccc34)n[nH]2)o1	inactive: 0.57%	
58	Cc1cc(N2CCC(C)CC2)nc(NCc2ccccc2)n1		active: 13 µM
59	CCc1ccc2c(c1)C(O)(CC(=O)c1cccs1)C(=O)N2 (centres undefined)	inactive: -1.53%	
60	CC(=O)c1ccc(S(=O)(=O)N2CCN(C(=O)/C=C/c3ccc4ccccc4n3)CC2)cc1		inconclusive: 23.1 µM [cytotoxic, single point]
61	COc1ccc(Cl)c(Cn2c(NCCN)nc3c2c(=O)n(C)c(=O)n3C)c1	inactive: -2.59%	
62	C#CCOCC1CN(c2ccccc2)C(=O)O1 (centres undefined)		inconclusive: 32.6 µM [cytotoxic, single point]
63	Cc1ccnc(NC(c2ccccc2F)c2ccc3cccnc3c2O)c1 (centres undefined)		inconclusive: 29.1 µM [cytotoxic, single point]
64	NC(=S)n1[nH]c(-c2ccc([N+](=O)[O-])cc2)c(N=Nc2cccc(Cl)c2)c1=O		active: 20.6 µM
65	COC(=O)c1cc(C)sc1NC(=O)c1cccnc1	inactive: -23.7%	
66	COc1ccc(C(=O)CCc2ccc(OC)c(OC)c2)cc1		inconclusive: 6.51 µM [cytotoxic, full curve, poor fit]
67	O=C(/C=C/c1cccc(C(F)(F)F)c1)N1CCN(c2ccccn2)CC1		inconclusive: 25.9 µM [cytotoxic, single point]
